Measurements: paper doi:10.1101/182626
These are yes or no findings as the source states them, for the method shown. Binding seen in cells or lysates may run through a third protein. Some binding calls cover weakened binding; strength is not graded here. Tags and fused reporters may be left off the sequences shown.

B1: mCherry-Stx17[S2A] phosphonull mutant, P56962 1-302 (protein)
chain: MAEDEEKVKLRRLEPAIQKFIKIVIPTDLERLRKHQINIEKYQRCRIWDKLHEEHINAGRTVQQLRSNIREIEKLCLKVRKDDLVLLKRMIDPVKEEASAATAEFLQLHLESVEELKKQFNDEETLLQPPLTRSMTVGGAFHTTEAEASSQSLTQIYALPEIPQDQNAAESWETLEADLIELSQLVTDFSLLVNSQQEKIDSIADHVNSAAVNVEEGTKNLGKAAKYKLAALPVAGALIGGMVGGPIGLLAGFKVAGIAAALGGGVLGFTGGKLIQRKKQKMMEKLTSSCPDLPSQTDKKCS

Key:
[1] = target: T1, EGFP-VPS33A (UniProt Q96AX1); experiment: FRET or BRET
T1 sequence: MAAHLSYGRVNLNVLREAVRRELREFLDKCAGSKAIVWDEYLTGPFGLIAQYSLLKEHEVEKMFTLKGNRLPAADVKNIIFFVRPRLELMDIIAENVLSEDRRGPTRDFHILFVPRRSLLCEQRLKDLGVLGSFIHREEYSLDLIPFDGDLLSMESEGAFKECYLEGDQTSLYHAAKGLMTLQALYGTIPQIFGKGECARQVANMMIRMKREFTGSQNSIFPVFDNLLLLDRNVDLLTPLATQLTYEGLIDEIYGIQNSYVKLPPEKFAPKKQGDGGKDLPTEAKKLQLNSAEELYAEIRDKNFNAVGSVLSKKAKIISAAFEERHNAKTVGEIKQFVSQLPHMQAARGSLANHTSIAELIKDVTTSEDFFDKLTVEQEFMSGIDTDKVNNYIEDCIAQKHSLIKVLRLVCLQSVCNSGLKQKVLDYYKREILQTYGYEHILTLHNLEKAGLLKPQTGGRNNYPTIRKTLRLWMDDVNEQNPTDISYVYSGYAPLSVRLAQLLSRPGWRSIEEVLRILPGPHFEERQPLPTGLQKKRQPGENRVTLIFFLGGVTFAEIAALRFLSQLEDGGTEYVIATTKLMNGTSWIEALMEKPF

[2] = target: T2, EGFP-VPS33A, Q96AX1; experiment: FRET or BRET; details: remark: other sources report otherwise
T2 chain: T1 sequence

| Molecule | binding [1] | binding [2] |
| --- | --- | --- |
| mCherry-Stx17[ED3-6K] charge mutant (from UniProt P56962 1-302) | no binding |  |
| mCherry-Stx17[S2E] phosphomimetic mutant (from UniProt P56962 1-302) | binds |  |
| B1 |  | no binding |
